# According to paper PMC6131194:
# Molecular target: T1, RiCRN1ΔSP (RiCRN1 without signal peptide) (R. irregularis)
# T1 sequence: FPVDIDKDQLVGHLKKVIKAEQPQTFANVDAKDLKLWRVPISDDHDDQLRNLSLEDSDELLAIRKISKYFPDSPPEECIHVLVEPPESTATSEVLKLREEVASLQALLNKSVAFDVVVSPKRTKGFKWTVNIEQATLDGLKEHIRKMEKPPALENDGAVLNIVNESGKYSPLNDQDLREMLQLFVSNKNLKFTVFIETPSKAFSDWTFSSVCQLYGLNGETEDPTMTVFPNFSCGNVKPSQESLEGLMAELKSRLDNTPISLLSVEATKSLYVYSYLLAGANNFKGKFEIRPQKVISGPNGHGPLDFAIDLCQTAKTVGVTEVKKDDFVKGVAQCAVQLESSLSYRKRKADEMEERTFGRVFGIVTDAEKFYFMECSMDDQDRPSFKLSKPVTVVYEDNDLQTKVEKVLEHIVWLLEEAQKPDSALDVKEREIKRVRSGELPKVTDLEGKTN
# Assay: two-hybrid; bait (pGBKT7) and prey (pGADT7) vectors co-transformed in S. cerevisiae AH109; interaction tested on SD medium lacking leucine, tryptophan, histidine and adenine; growth validated after 5 days at 30°C
row,Substance,binding
1,MtSR45 (M. truncatula (from the prefix Mt)),no binding
2,MtU1-70K (M. truncatula (from the prefix Mt)),no binding
3,MtU2AF^35b (M. truncatula (from the prefix Mt)),no binding

# Results are given in words; binding and its absence hold for the method and conditions named.
